Values quoted from earlier work in patent US8324014B2, “Process for depositing boron compounds by CVD or PVD” (L'Air Liquide Societe Anonyme pour l'Etude et …, priority 2007, dated 2012).
At least one compound was matched to its structure with a doubt left.

Details: cited from earlier work

For `B.B` [diborane], the toxicity on handling is listed as “very toxic”.
